From publication PMC7819943, “Rice protein-binding microarrays: a tool to detect cis-acting elements near promoter regions in rice” come the findings set out here.

Protein sequences, listed by entry. Tags and fused reporters are not part of them.
UniProt Q0JBA9, entry or part of it: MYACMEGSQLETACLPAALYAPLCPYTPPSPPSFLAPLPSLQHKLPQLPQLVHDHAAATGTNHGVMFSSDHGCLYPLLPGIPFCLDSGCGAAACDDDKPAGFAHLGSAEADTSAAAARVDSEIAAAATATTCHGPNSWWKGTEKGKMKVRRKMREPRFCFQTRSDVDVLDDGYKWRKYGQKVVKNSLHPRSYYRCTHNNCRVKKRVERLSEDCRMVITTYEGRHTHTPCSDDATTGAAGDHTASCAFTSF

The list shows a part of the results.

For this test, the target named is OsWRKY34 (Oryza sativa, UniProt Q0JBA9 1-250). The test can be described thus: protein-binding microarray (RPBM); PBS, 2% BSA, 51.3 ng/ul salmon testes DNA, 50 uM zinc acetate, 200 nM TF, 25 C, 1 h; high values mean tight binding. The note with it: protein: recombinant; tags: N-terminal polyhistidine and DsRed monomer fusion (pET32a); label: CyDye5-dUTP incorporated in the synthesized complementary strand; 3' TTTTT single-stranded linker to array surface; dsDNA, one strand shown. A digest of the protocol: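 Using Ni–NTA, transcription factors fused N-terminally to polyhistidine and DsRed were purified after expression in E. coli BL21-CodonPlus. These were incubated at 200 nM with a blocked, double-stranded custom Agilent array for 1 h at 25 °C in a buffer containing 50 µM zinc acetate, and the array was washed. The binding signal is per-feature fluorescence intensity (arbitrary units) on an Axon 4000B scanner.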
For “AACAAGTCTGACTTATTTGACGACTGATTGGTTGGGGTCACGGAGTCACCTAGTGCAG”, the binding signal is 8280 fluorescence intensity (a.u.).

Take “GATTCGTTGTTTTTTTTCTTCCTCTTGGTGTGTAGGGATGCGGAGTCACCTAGTGCAG”: the binding signal was 11000 fluorescence intensity (a.u.).

Consider “ATACTGTCATAGGATCTCGAGTACACCTGTTTTACAAGTTCGGAGTCACCTAGTGCAG”, for which the binding signal was 8860 fluorescence intensity (a.u.).

As to “GCTAAACTGTACCCATGTTCTTCAGCATTTCTTTAATCTACGGAGTCACCTAGTGCAG”, the binding signal is 10400 fluorescence intensity (a.u.).

With “CCGCACGAGACTGAAGCCTAATCTTTTCGCTTACGTTCATCGGAGTCACCTAGTGCAG”, the binding signal is 11300 fluorescence intensity (a.u.).

For “AGCTCATGGATTTCTTCTCACGTGAGGCCCATATGTATTGCGGAGTCACCTAGTGCAG”, the binding signal is 8660 fluorescence intensity (a.u.).

Turning to “CGGTTAGATTACATTGGTACCTCATGATATCTCGTACCTCCGGAGTCACCTAGTGCAG”, the binding signal was 8660 fluorescence intensity (a.u.).

For the sequence “CTATATATAGCCTTTTTTATACATGAAGTTTCTTTATATACGGAGTCACCTAGTGCAG”, the binding signal is 8330 fluorescence intensity (a.u.).

For the sequence “ACCGTGTCGAGCTATGTCTCCTCATCCTCGCTATGTTTCACGGAGTCACCTAGTGCAG”, the binding signal is 14800 fluorescence intensity (a.u.).

For the sequence “TCGTTGAACGCGCCCACCAGCTCCGCCACCAGCCGCCCTCCGGAGTCACCTAGTGCAG”, the binding signal is 9490 fluorescence intensity (a.u.).

With “ATAATATATAATCAAACAAAAAAATGGACTATAATCTCTCCGGAGTCACCTAGTGCAG”, the binding signal was 64400 fluorescence intensity (a.u.).

Turning to “CAACATATTATTTCGCTCTATTTTTATTGTATGTTGCATCCGGAGTCACCTAGTGCAG”, the binding signal was 11300 fluorescence intensity (a.u.).

As to “CTCAGAATCGTCAATGGCATCGCCTCTCATTTCGCGTCGACGGAGTCACCTAGTGCAG”, the binding signal is 9320 fluorescence intensity (a.u.).

As for “ACCATCTCTCGCTGCATTTACAGTTTTTTTGGGCCAAATGCGGAGTCACCTAGTGCAG”, the binding signal is 12500 fluorescence intensity (a.u.).

With “GATTGGGAGGTATTCCGGTGTTTTTTTGGTGCTAAATTTTCGGAGTCACCTAGTGCAG”, the binding signal is 9040 fluorescence intensity (a.u.).

For “TTATTATTTGCATTATTTCCTTAGGGTTTACTCCTGATTTCGGAGTCACCTAGTGCAG”, the binding signal was 8370 fluorescence intensity (a.u.).

In the case of “ATCCATCCTGCACAACCGAATCGATTGATGGTCATTTCAACGGAGTCACCTAGTGCAG”, the binding signal was 8260 fluorescence intensity (a.u.).

For “ATATACAGATTTCGATCGGCGACGTTAGTGATCAGCTGGGCGGAGTCACCTAGTGCAG”, the binding signal was 35200 fluorescence intensity (a.u.).

As to “CGTGCATATGGGTCATCCCACTACCATCCCTATTCCCTAACGGAGTCACCTAGTGCAG”, the binding signal was 8230 fluorescence intensity (a.u.).

“TTATTCCTTACTATTCGCGTCTTTTACTAGGGCAGGATATCGGAGTCACCTAGTGCAG”: the binding signal is 9020 fluorescence intensity (a.u.).

Consider “CACCGCCGCCGCCGCCGCCTCCGCTACTCCGTCCACGACTCGGAGTCACCTAGTGCAG”, for which the binding signal was 10200 fluorescence intensity (a.u.).

As to “CTGACATATGACCCCATATGTTTTGTTTTTATTTTTTTAACGGAGTCACCTAGTGCAG”, the binding signal is 8290 fluorescence intensity (a.u.).

In the case of “AGCTTCTAATCTTGTATTATCCGACCGTACGTATAACTTGCGGAGTCACCTAGTGCAG”, the binding signal is 8740 fluorescence intensity (a.u.).

Regarding “CCCGATCCGACGGCTCACATTCACTCTCACCTCACCTGCCCGGAGTCACCTAGTGCAG”, the binding signal was 8680 fluorescence intensity (a.u.).

“AATTCCCCGTTGCTATACCGGATTCGGTTCTTCTCGCCGACGGAGTCACCTAGTGCAG”: the binding signal is 8620 fluorescence intensity (a.u.).

“TCGTAGTATCACACACTTCACACCACGTCACCACGCCCTCCGGAGTCACCTAGTGCAG”: the binding signal was 8110 fluorescence intensity (a.u.).

As to “CTCTCTCTCTCTCTCTCTGCCTCGGCGACCTCGCCTCCGCCGGAGTCACCTAGTGCAG”, the binding signal was 10800 fluorescence intensity (a.u.).

For “AGGTCTTTGTCTGATGGTGTATTAATAATCCATCAGGTTTCGGAGTCACCTAGTGCAG”, the binding signal was 8980 fluorescence intensity (a.u.).

“CCGCGTGCTTCTCTTCCTCGCTCACTCCTCCTCGCGTCCTCGGAGTCACCTAGTGCAG”: the binding signal was 9770 fluorescence intensity (a.u.).

For the sequence “ACCACCCAGGCATCATCCCGCTCGCCGTCCGCGACGTCTTCGGAGTCACCTAGTGCAG”, the binding signal was 10800 fluorescence intensity (a.u.).

As for “TTTTCACACCAGCATTTAGCAGCATTTCTTCTCTTTGCAACGGAGTCACCTAGTGCAG”, the binding signal was 8650 fluorescence intensity (a.u.).

“CTTTTCTGTCACATCGTTTCAATTTCAATCAAATTTTCAACGGAGTCACCTAGTGCAG”: the binding signal is 9910 fluorescence intensity (a.u.).

Turning to “GCAGGGTCTCACCAACTCGCGTCACCCGCCGACGACCCCACGGAGTCACCTAGTGCAG”, the binding signal is 9270 fluorescence intensity (a.u.).

In the case of “TTTTTTTCTGGGTTCGCCACTGTCTCTACCCAATCCTATACGGAGTCACCTAGTGCAG”, the binding signal is 9020 fluorescence intensity (a.u.).

Regarding “GATATTTTTGGATGGAGGGAGTATTAAACTCTACGATAAACGGAGTCACCTAGTGCAG”, the binding signal was 8140 fluorescence intensity (a.u.).

“ACAAACCCGACCTTGAACTCGAAACAGGCGCACATCCCACCGGAGTCACCTAGTGCAG”: the binding signal is 8560 fluorescence intensity (a.u.).

As for “ACACTAAAGCTGATCCATCTTAATGTACAATGGGTTTTCTCGGAGTCACCTAGTGCAG”, the binding signal was 9090 fluorescence intensity (a.u.).

As to “ACGTGGTTGGTTTGACTAGATCTTCGTCCCACGTGGCATTCGGAGTCACCTAGTGCAG”, the binding signal was 8320 fluorescence intensity (a.u.).

For the sequence “TTGACATTTCACGCGATTTCTCTCTCCTCTTCAACCGGAACGGAGTCACCTAGTGCAG”, the binding signal is 8900 fluorescence intensity (a.u.).

Regarding “AAAACCGCAATATTACTCCATCACTCGAACTCTGATCCGACGGAGTCACCTAGTGCAG”, the binding signal is 8190 fluorescence intensity (a.u.).

“AGTACAGCCTGTTAGGTCACATCTTGTGTTTCTTTATTTTCGGAGTCACCTAGTGCAG”: the binding signal was 11700 fluorescence intensity (a.u.).

For “GCTCGCTTTTTTTTTTTTCTGTTTCTTCGTTTCTCTTCCCCGGAGTCACCTAGTGCAG”, the binding signal was 11000 fluorescence intensity (a.u.).
